Laboratory results reported in US6214795A, “Peptide compounds useful for modulating FGF receptor activity” (Praecis Pharmaceuticals, Inc., priority 1996, dated 2001).
pIC50: −log10 of the molar value. At least one structure is not confirmed: it was looked up by name or label, or the drawing left a doubt. Residues, ends and D or L forms follow the SMILES beside them.

Protein sequences, listed by entry. Tags and fused reporters are not part of them. Residues count along the entry.
UniProt P21802, 22-377 limits assumed, species assumed: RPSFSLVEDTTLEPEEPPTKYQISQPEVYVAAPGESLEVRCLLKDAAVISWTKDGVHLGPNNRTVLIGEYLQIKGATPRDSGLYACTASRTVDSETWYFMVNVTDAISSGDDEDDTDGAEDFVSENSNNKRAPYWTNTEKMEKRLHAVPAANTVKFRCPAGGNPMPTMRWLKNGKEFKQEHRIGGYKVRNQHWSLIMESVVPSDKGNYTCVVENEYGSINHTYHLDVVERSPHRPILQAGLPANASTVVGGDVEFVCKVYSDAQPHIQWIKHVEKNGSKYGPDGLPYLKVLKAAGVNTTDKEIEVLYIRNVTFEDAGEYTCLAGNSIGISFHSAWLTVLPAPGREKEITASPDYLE

Target: FGFR2-IIIC (Homo sapiens, UniProt P21802)
Assay: FGF receptor binding assay: inhibition of 125I-bFGF binding to FGF receptor
Details: Table 5 peptides (bFGF-binding peptides)
Protocol: The ability of a peptide compound to bind to an FGF receptor can be determined using one or both of the receptor binding assays described in this example, which measure the ability of a test compound to inhibit the binding of radiolabeled bFGF to the FGF receptor. The first assay is a cell-based assay, utilizing FGF receptor-expressing cells. Cells expressing an FGF receptor are seeded on a 96 well plate (50,000 cells/well) and incubated overnight at 37° C., 5% CO2. The cells are then washed once with binding buffer (Dulbecco's Modified Eagle's Medium (DMEM) with HEPES, gelatin and heparin). A test peptide is diluted to the desired concentration in binding buffer with heparin (15 U/ml) and added to the cells (25 μl per well). ^125 I-bFGF (50,000 cpm/well; Amersham Life Sciences), diluted in binding buffer with heparin, is added to each well (25 μl per well so that final volume is 50 μl). The cells are incubated in a humidified chamber at 4° C. for 3 hours. The cells are washed twice with binding buffer to remove unbound material. The washed cells are then dissolved in 100 μl of 1N NaOH and counted in a gamma counter. The ability of a test compound to bind to FGFR is evidenced by the reduced binding of ^125 I-bFGF to the cells in the presence of the test compound as compared to the binding of ^125 I-bFGF to the cells in the absence of the test compound.
A second FGFR binding assay utilizes biotinylated soluble FGFR. Biotinylated FGFR is mixed in an eppendorf tube with ^125 I-bFGF and a test compound in binding buffer. The tubes are placed on an eppendorf roller at 4° C. for 1.5 hours. Magnetic streptavidin beads (CPG, Inc.) are prepared by washing twice with binding buffer. After the 1.5 hour incubation of the tubes, 15 μl of magnetic streptavidin beads are added to each tube and continued on the eppendorf roller for 10 minutes at 4° C. to allow the strepavidin to interact with the biotinylated FGFR. […] The contents (i.e., strepavidin beads, with biotinylated FGFR and ^125 I-bFGF bound thereto) are counted in a Gamma counter. […]

## CC(=O)NCC(=O)N[C@@H](CS)C(=O)N[C@H](C(=O)N[C@@H](CC(C)C)C(=O)N[C@@H](CC(C)C)C(=O)N[C@@H](Cc1ccc(O)cc1)C(=O)N[C@@H](CC(=O)O)C(=O)N[C@@H](CCC(=O)O)C(=O)N[C@@H](CCCNC(=N)N)C(=O)N[C@H](C(=O)N[C@@H](CS)C(=O)NCC(N)=O)[C@@H](C)O)C(C)C [Compound 513, Acetyl-GCVLLYDERTCG-NH] (Ac-GCVLLYDERTCG-NH2)
  pIC50: < 4.00

## CC(C)C[C@H](NC(=O)[C@H](CC(=O)O)NC(=O)[C@@H](NC(=O)[C@H](CS)NC(=O)CNC(=O)[C@H](C)NC(=O)[C@H](C)NC(=O)CNC(=O)[C@H](CC(=O)O)NC(=O)[C@H](C)N)C(C)C)C(=O)N[C@@H](Cc1ccc(O)cc1)C(=O)N[C@@H](Cc1c[nH]cn1)C(=O)N[C@@H](Cc1ccc(O)cc1)C(=O)N[C@H](C(=O)N[C@@H](Cc1ccc(O)cc1)C(=O)N[C@@H](CS)C(=O)NCC(=O)NCC(=O)N[C@@H](C)C(=O)N[C@@H](C)C(N)=O)C(C)C [Compound 507] (H-ADGAAGCVDLYHYVYCGGAA-NH2)
  pIC50: < 4.00

## CC(=O)NCC(=O)N[C@@H](CS)C(=O)N[C@H](C(=O)N[C@@H](CC(=O)O)C(=O)N[C@@H](CC(C)C)C(=O)N[C@@H](Cc1ccc(O)cc1)C(=O)N[C@@H](Cc1c[nH]cn1)C(=O)N[C@@H](Cc1ccc(O)cc1)C(=O)N[C@H](C(=O)N[C@@H](Cc1ccc(O)cc1)C(=O)N[C@@H](CS)C(=O)NCC(N)=O)C(C)C)C(C)C [Compound 514, Acetyl-GCVDLYHYVYCG-NH] (Ac-GCVDLYHYVYCG-NH2)
  pIC50: < 4.00
